PubChem BioAssay AID493014 (National Center for Advancing Translational Sciences (NCATS), 2011)
Some of the results follow. Shown are side measurements of this screen, not its main read-out; they come without a call. Compounds called inactive in the main read-out are mostly missing here. Potencies come from curve fits of mixed quality, noted in brackets.

Experiment: qHTS Assay to Find Inhibitors of Chronic Active B-Cell Receptor Signaling
Details: ABC-DLBCL IkBa-CBG/CBR reporter, luminescence ratio (green luciferase fused to IkBa over red control in TMD8 lymphoma cells), 4 h
How it was run: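 Concentration-response series (up to 46 uM) were applied to TMD8 dual-reporter cells for 4 h at 37C with doxycycline. Green/red ratio, after filter-overlap correction, defined %Activity; red signal alone was normalised to basal cells and zero luminescence.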

[1] = measured here: CBR red luminescence, cell number
[2] = measured here: IkBa-CBG green luminescence

SMILES	AC50 [1]	AC50 [2]
COCCn1nnnc1C(C(C)C)N1CCCC(C)C1 (stereo not drawn)	12.6 µM [rising, partial curve, poor fit]	–
CC(Sc1cccc[n+]1[O-])c1ccccc1 (stereo not drawn)	35.5 µM [falling, single point]	31.6 µM [falling, single point]
O=C(O)c1ccccc1C(=O)NCC(O)c1ccccc1 (stereo not drawn)	3.16 µM [rising, full curve, poor fit]	–
Cc1ccc(CSC2=Nc3ccccc3C3=NC(CCC(=O)NCc4cccs4)C(=O)N23)c(C)c1 (stereo not drawn)	3.16 µM [rising, single point]	–
C=CCN1C(=O)[C@@H]2Cc3c([nH]c4ccccc34)C(c3ccc(O)cc3)N2C1=S (stereo partly drawn)	12.6 µM [falling, single point]	–
O=[N+]([O-])/C(C=Nc1ccccc1O)=C\Nc1ccccc1O	11.2 µM [falling, single point]	–
Oc1ccccc1-c1cc(C(F)(F)C(F)F)[nH]n1	18.4 µM [falling, single point]	–
C/C(=N\NC(=O)COc1c(C)cccc1C)c1cccs1	6.31 µM [rising, full curve, poor fit]	–
COc1ccc(C(=O)Cc2ccc(F)cc2)c(OC)c1	7.31 µM [rising, partial curve, poor fit]	–
CCC(C)NC(=O)c1ccc2c(c1)N(Cc1ccccc1)C(=O)CS2 (stereo not drawn)	35.5 µM [rising, single point]	–
CC(C)c1ccc(NC(=O)Cn2ncc3ccccc32)cc1	2.82 µM [rising, full curve]	–
Cc1ccc(Nc2nc(CSc3nnc(-c4cccnc4)n3-c3ccccc3F)cs2)cc1	29.1 µM [falling, single point]	–
CCC(=O)Nc1cccc(NC(=O)c2cc3ccccc3o2)c1	7.08 µM [falling, partial curve]	–
CN(C)c1ccc(C(C[N+](=O)[O-])c2c(N)n(C)c(=O)n(C)c2=O)c(F)c1C#N (stereo not drawn)	6.31 µM [falling, full curve, poor fit]	20 µM [falling, partial curve, poor fit]
Cc1cc(NC(=O)CSc2nc3cc(Cl)ccc3s2)no1	20.6 µM [rising, partial curve, poor fit]	–
Cc1ccc(-n2[nH]c(C)c(C=Nc3cc(C)ccn3)c2=O)cc1	11.6 µM [falling, partial curve, poor fit]	–
CC[n+]1c(/C=C2\C=C(C)CC(C)C2)sc2ccccc21 (stereo not drawn)	20 µM [falling, single point]	–
O=c1c2c(-c3cccc([N+](=O)[O-])c3)ccnc2[nH]n1-c1ccccc1	2.51 µM [falling, full curve, poor fit]	–
O=C(CN(C(=O)CCC(=O)Nc1nccs1)c1ccccc1F)NCC1CCCO1 (stereo not drawn)	9.2 µM [falling, partial curve, poor fit]	–
CCN1CCCC1CNC(=O)c1cc2ccc(OC)cc2[nH]1 (stereo not drawn)	5.62 µM [falling, single point]	–
COc1ccc(C(=O)Nc2nc(C)c(C(=O)N(C)C)s2)cc1OC	0.0184 µM [rising, full curve, poor fit]	–
CN1C(=O)C(CC(=O)Nc2ccc(Cl)cc2)N(Cc2ccco2)C1=S (stereo not drawn)	–	22.4 µM [falling, single point]

SMILES	AC50 [1]	AC50 [2]
CCOc1ccc(N2CC(C(=O)NCCCc3ccccc3)CC2=O)cc1 (stereo not drawn)	29.1 µM [rising, single point]	–
COCCN(C(=O)CN1CCc2ccccc21)c1c(N)n(Cc2ccccc2)c(=O)[nH]c1=O	29.1 µM [rising, single point]	–
c1ccc(CCc2cc3ccccc3[nH]2)cc1	0.231 µM [rising, full curve, poor fit]	–
CCC(=O)Nc1cccc(NC(=O)c2ccc3c(c2)OCCO3)c1	7.31 µM [falling, partial curve]	–
O=C(Nc1ccc(Cl)c(Cl)c1)OCCNC(=O)c1ccncc1	0.112 µM [rising, full curve, poor fit]	–
Cc1nc2scc(-c3ccc(C(C)(C)C)cc3)c2c(=O)n1N	35.5 µM [rising, single point]	–
CC(=O)Nc1ccc(S(=O)(=O)NCCC(=O)OCC(=O)c2cccc(Br)c2)cc1	29.1 µM [rising, single point]	–
CC1(C)CC(=O)C2=C(C1)N=C1SCCC(=O)N1C2c1cccc([N+](=O)[O-])c1 (stereo not drawn)	22.4 µM [falling, single point]	–
CCN(CC)C(=S)Nc1ccc(Cl)c(Cl)c1	8.2 µM [rising, partial curve, poor fit]	–
Cc1ccc2c(n1)sc1c(-c3ccccc3)c(C#N)c(N)nc12	0.112 µM [falling, full curve, poor fit]	–
Cn1cc(CC(=O)NCc2ccc(F)cc2)c2ccccc21	22.4 µM [rising, single point]	–
Cc1cccc2nc(=S)n(C(=O)c3ccco3)n12	0.206 µM [rising, partial curve, poor fit]	–
COc1ccc(OC)c(NC(=O)CSc2nnc(C3CCCCC3)o2)c1	17.8 µM [falling, partial curve, poor fit]	–
COC(=O)c1ccc(OC)c(CSc2nnc(COc3ccc(Cl)cc3)o2)c1	0.82 µM [falling, partial curve, poor fit]	–
COc1cc(C(=O)Nc2ccc(C)cn2)ccc1OCC(=O)N1CCOCC1	6.51 µM [falling, partial curve, poor fit]	–
COc1ccccc1NC(=O)CCSCCC(=O)Nc1ccccc1OC	20.6 µM [falling, single point]	–
Cc1ccn2cc(-c3cccc(NC(=O)CCC(=O)O)c3)nc2c1	35.5 µM [falling, single point]	–
O=C(CN1CCN(S(=O)(=O)c2ccccc2)CC1)Nc1ccc(Cl)cn1	7.08 µM [rising, full curve, poor fit]	–
COc1ccc(OC)c(C2=NOC(C(=O)N3CCCc4ccccc43)C2)c1 (stereo not drawn)	1.3 µM [rising, full curve, poor fit]	–
CCOC(=O)c1c(C)n(C)c2ccc(OC)c(NC(=O)CN3CCSCC3)c12	12.6 µM [rising, partial curve]	12.6 µM [falling, partial curve, poor fit]
Nc1cc(-c2ccc(OC(F)(F)F)cc2)nn1-c1ccc(Cl)c(Cl)c1	10 µM [rising, partial curve]	–
O=C(Nc1ccc(C(=O)O)cc1)Nc1ccc([N+](=O)[O-])cc1	6.31 µM [falling, partial curve]	–

Look-ups from the list.
AC50 [1] with `CCC(C)NC(=O)c1ccc2c(c1)N(Cc1ccccc1)C(=O)CS2` (stereo not drawn) is entered as 35.5 µM [rising, single point]
AC50 [1] with `C/C(=N\NC(=O)COc1c(C)cccc1C)c1cccs1` is entered as 6.31 µM [rising, full curve, poor fit]

Going on with the list.

SMILES	AC50 [1]	AC50 [2]
CNC(=O)c1cc(C(=O)c2ccccc2C(F)(F)F)c[nH]1	5.01 µM [rising, partial curve, poor fit]	–
CC1=C(/C=C/C(C)=C/C=C/C(C)=C/C(=O)Nc2ccc(O)cc2)C(C)(C)CCC1	8.2 µM [rising, partial curve, poor fit]	–
CCCCSc1n[nH]c(N)n1	10.3 µM [rising, partial curve, poor fit]	–
COc1ccc(C(=O)Nc2ccc3[nH]ncc3c2)cc1	12.6 µM [falling, partial curve]	–
Cc1cccc(NC(=O)c2cccc(C(F)(F)F)c2)c1	1.41 µM [rising, full curve]	–
O=C(Nc1ccc(Cl)cc1C(=O)O)c1ccc2c(c1)C(=O)N(Cc1ccco1)C2=O	11.6 µM [falling, partial curve]	–
O=C(CNC(=O)c1ccccc1F)N/N=C/c1ccco1	15.8 µM [falling, single point]	–
Cc1ccc(-n2nnnc2SCC(=O)Nc2cccc(NC(=O)c3ccco3)c2)cc1C	1.58 µM [falling, full curve, poor fit]	–
COc1ccc2c(c1)c(CC(=O)Nc1cc(C)ccc1C)c(C)n2C(=O)c1ccc(Cl)cc1	2.31 µM [rising, single point]	–
O=C(NCc1ccc(Cl)cc1)N1CCN(Cc2ccccc2)CC1	11.2 µM [falling, partial curve, poor fit]	–
O=C(N/N=C/c1cc([N+](=O)[O-])cc(Br)c1O)C12CC3CCC(CC(C3)C1)C2	35.5 µM [rising, single point]	–
CC1=NNC(=O)C(CC(=O)Nc2ccc(Cl)c(Cl)c2)C1 (stereo not drawn)	18.4 µM [rising, single point]	–
COc1ccc(C(=O)Cc2cc3cccc(OC)c3oc2=O)cc1	1.12 µM [falling, full curve, poor fit]	–
Cc1ccc(/C=C/C(=O)OC(C)C(=O)Nc2ncc(Cl)cc2Cl)o1 (stereo not drawn)	29.1 µM [rising, single point]	–
O=C(COC(=O)c1cc2ccccc2oc1=O)Nc1ccc(F)cc1F	31.6 µM [falling, single point]	–
CCOC(=O)C1C(=O)NC(N2CCc3ccccc32)=NC1c1ccccc1 (stereo not drawn)	31.6 µM [rising, single point]	–
Nc1ccccc1Sc1ccc(C(F)(F)F)cc1[N+](=O)[O-]	11.2 µM [rising, partial curve, poor fit]	–
NNC(=O)c1cncc(Br)c1	20 µM [falling, partial curve, poor fit]	–
O=C(C1=NN[C@@H]2C(=O)N(Cc3ccccc3)C(=O)[C@H]12)c1ccc([N+](=O)[O-])cc1	2.24 µM [rising, full curve, poor fit]	–
CCOc1ccccc1C(=O)N/N=C/c1coc2ccc(C)cc2c1=O	35.5 µM [rising, single point]	35.5 µM [falling, single point]

3 entries from above, sorted by heavy-atom count, ascending:
SMILES	AC50 [1]	AC50 [2]
O=C(CNC(=O)c1ccccc1F)N/N=C/c1ccco1	15.8 µM [falling, single point]	–
CN1C(=O)C(CC(=O)Nc2ccc(Cl)cc2)N(Cc2ccco2)C1=S (stereo not drawn)	–	22.4 µM [falling, single point]
COC(=O)c1ccc(OC)c(CSc2nnc(COc3ccc(Cl)cc3)o2)c1	0.82 µM [falling, partial curve, poor fit]	–
